Laboratory results: PubChem BioAssay AID1224830 (NIAID, 2016)
Purpose: 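Regulators of TLR4 signalling towards TNF-alpha in macrophage-like cells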 (primary screen). System: human THP-1 monocytic leukaemia cells, TNF dual-luciferase reporter clone, PMA-differentiated to macrophage-like cells. Reagent: siRNA pool against human genes, 50 nM. Time to read-out: LPS for 4 h, given about 3 days after siRNA transfection. Treatment: bacterial LPS (TLR4 ligand), 10 ng/ml. Measurement: 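TNF firefly reporter luminescence divided by renilla, normalised to the plate median, then turned into a robust z-score for each replicate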. Direction: TNF reporter robust z-score: higher = stronger TNF reporter response to LPS. Hit rule: 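Each well counts as active if its z-score is over 2.8 or under -1.5; controls are left without a call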.
The whole screen tested about 18,000 reagents; below is an unselected part. In the full data, about 2,900 (16%) are marked active. 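Calls are made per well; low scores hint the gene aids the LPS response, high scores that it dampens it.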 Repeated entries: four replicate wells of each siRNA pool. No sequences are given here.

target gene	TNF reporter robust z-score	Outcome
ANKRD46	0.19	inactive
ANKRD46	1.19	inactive
ANKRD46	1.56	inactive
ANKRD46	0.61	inactive
YTHDC1	2.36	inactive
YTHDC1	1.12	inactive
YTHDC1	2.32	inactive
YTHDC1	2.24	inactive
CASZ1	3.04	active
CASZ1	2.61	inactive
CASZ1	1.24	inactive
CASZ1	3.37	active
GTF3C6	-0.9	inactive
GTF3C6	-0.44	inactive
GTF3C6	-1.01	inactive
GTF3C6	-1	inactive
PSMD5	0.89	inactive
PSMD5	2.44	inactive
PSMD5	1.22	inactive
PSMD5	1.15	inactive
PRSS53	-0.77	inactive
PRSS53	1.31	inactive
PRSS53	2.02	inactive
PRSS53	-0.91	inactive
E2F4	-0.04	inactive
E2F4	0.57	inactive
E2F4	-0.16	inactive
E2F4	0.49	inactive
DTD2	-0.75	inactive
DTD2	-0.45	inactive
DTD2	0.29	inactive
DTD2	0.2	inactive
ERI2	1.55	inactive
ERI2	2.49	inactive
ERI2	1.53	inactive
ERI2	2.26	inactive
MTUS2	-0.91	inactive
MTUS2	-0.28	inactive
MTUS2	-0.44	inactive
MTUS2	-0.62	inactive
FAAP100	2.49	inactive
FAAP100	3.08	active
FAAP100	1.92	inactive
FAAP100	2.33	inactive
BPHL	-0.39	inactive
BPHL	0.17	inactive
BPHL	-0.7	inactive
BPHL	0.56	inactive
H2AZ1	1.59	inactive
H2AZ1	1.73	inactive
H2AZ1	0.78	inactive
H2AZ1	0.35	inactive
ITFG2	1.4	inactive
ITFG2	-0.08	inactive
ITFG2	-0.43	inactive
ITFG2	-0.58	inactive
DBN1	-0.37	inactive
DBN1	-0.45	inactive
DBN1	-0.8	inactive
DBN1	-0.35	inactive
H2BC5	0.98	inactive
H2BC5	0.78	inactive
H2BC5	1.36	inactive
H2BC5	-0.2	inactive
SEC22A	0.07	inactive
SEC22A	1.1	inactive
SEC22A	-0.3	inactive
SEC22A	0.42	inactive
SUGT1	-0.41	inactive
SUGT1	-0.28	inactive
SUGT1	0.18	inactive
SUGT1	-0.15	inactive
ZNF268	-0.54	inactive
ZNF268	0.26	inactive
ZNF268	-0.2	inactive
ZNF268	0.41	inactive
NKPD1	1.75	inactive
NKPD1	2.82	active
NKPD1	1.14	inactive
NKPD1	2.58	inactive
NIF3L1	0.84	inactive
NIF3L1	1.15	inactive
NIF3L1	1.55	inactive
NIF3L1	0.83	inactive
RAB20	0.9	inactive
RAB20	-0.21	inactive
RAB20	0.01	inactive
H3C14	-1.49	inactive
H3C14	-1.77	active
H3C14	-1.52	active
H3C14	-1.31	inactive
LRR1	-0.84	inactive
LRR1	-0.42	inactive
LRR1	-0.47	inactive
LRR1	-0.17	inactive
C2orf76	-0.5	inactive
C2orf76	0.97	inactive
C2orf76	0.51	inactive
C2orf76	0.85	inactive
LRG1	0.87	inactive
LRG1	1.18	inactive
LRG1	1.44	inactive
LRG1	1.08	inactive
MINDY3	-0.48	inactive
MINDY3	0.75	inactive
MINDY3	0.14	inactive
MINDY3	0.99	inactive
OR2B2	-1.24	inactive
OR2B2	-0.31	inactive
OR2B2	0.29	inactive
GPR171	-0.32	inactive
GPR171	0	inactive
GPR171	-0.02	inactive
GPR171	-0.5	inactive
OR10J1	1.22	inactive
OR10J1	1.68	inactive
OR10J1	0.57	inactive
OR10J1	0.24	inactive
RPL36AL	-1.34	inactive
RPL36AL	-1.18	inactive
RPL36AL	-1.22	inactive
RPL36AL	-1.32	inactive
COX7B2	0.55	inactive
COX7B2	-0.03	inactive
COX7B2	0.32	inactive
COX7B2	0.45	inactive
ADH1B	-0.06	inactive
ADH1B	0.75	inactive
ADH1B	-0.33	inactive
ADH1B	0	inactive
CDC42BPA	0.17	inactive
CDC42BPA	1.11	inactive
CDC42BPA	2.36	inactive
CDC42BPA	0.34	inactive
KRTAP6-2	-0.79	inactive
KRTAP6-2	-0.37	inactive
KRTAP6-2	-0.86	inactive
KRTAP6-2	-0.51	inactive
CYP2A13	-1.11	inactive
CYP2A13	-0.61	inactive
CYP2A13	-0.64	inactive
CYP2A13	-0.81	inactive

Records listed above called active (6):
target gene	TNF reporter robust z-score	Outcome
CASZ1	3.04	active
CASZ1	3.37	active
FAAP100	3.08	active
NKPD1	2.82	active
H3C14	-1.77	active
H3C14	-1.52	active
